Measurements: patent publication US20250186373A1, “TARGETING AN EUKARYOTIC INITIATION FACTOR 2 ALPHA KINASE TO REGULATE TRANSLATION UNDER STRESS” (The Johns Hopkins University, priority 2022, published 2025)

How the values were obtained:
MARK2 [1] = target: T1, MARK2 (Mus musculus, UniProt Q05512); assay: cell-based MARK2 kinase activity assay based on eIF2α phosphorylation (immunoblot of MEFs); conditions: for activity in inhibiting the phosphorylation of eIF2α: comparison of seven drugs, FIG. 21E
T1 construct: endogenous in cells; host or cells: mouse embryonic fibroblasts (MEFs)
T1 sequence (Q05512 1-776): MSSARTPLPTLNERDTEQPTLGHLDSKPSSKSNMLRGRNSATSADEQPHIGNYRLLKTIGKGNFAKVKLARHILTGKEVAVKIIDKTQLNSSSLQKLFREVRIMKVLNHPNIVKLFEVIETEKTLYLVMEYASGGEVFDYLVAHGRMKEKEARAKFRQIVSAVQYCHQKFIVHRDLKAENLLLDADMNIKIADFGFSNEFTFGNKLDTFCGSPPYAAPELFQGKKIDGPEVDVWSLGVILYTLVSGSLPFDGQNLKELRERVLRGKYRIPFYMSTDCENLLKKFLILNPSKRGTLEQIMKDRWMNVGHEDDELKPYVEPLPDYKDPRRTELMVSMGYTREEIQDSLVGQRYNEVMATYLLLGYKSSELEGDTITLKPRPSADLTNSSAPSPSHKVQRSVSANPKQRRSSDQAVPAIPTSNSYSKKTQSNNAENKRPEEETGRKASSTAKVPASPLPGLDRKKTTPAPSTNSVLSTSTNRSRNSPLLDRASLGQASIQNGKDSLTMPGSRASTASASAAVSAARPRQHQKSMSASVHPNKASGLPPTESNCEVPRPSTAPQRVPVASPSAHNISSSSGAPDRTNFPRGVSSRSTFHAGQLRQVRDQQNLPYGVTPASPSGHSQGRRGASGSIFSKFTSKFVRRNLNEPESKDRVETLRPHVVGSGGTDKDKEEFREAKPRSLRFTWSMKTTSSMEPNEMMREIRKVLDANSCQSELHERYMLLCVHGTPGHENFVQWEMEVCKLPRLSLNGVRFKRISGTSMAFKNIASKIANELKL

MARK2 [2] = conditions: previous report; cited from earlier work

increase in the levels of phosphorylated eIF2α-51S in response to MG132 (MARK2 [1]; cell co-treatment with MG132): substantially diminished the increase
activity in inhibiting the phosphorylation of eIF2α (MARK2 [1]; listed as SB-415286): high activity
Structure (SMILES): O=C1NC(=O)C(c2ccccc2[N+](=O)[O-])=C1Nc1ccc(O)c(Cl)c1 [SB415286]
phosphorylation of eIF2α-51S (MARK2 [1]; MEFs, 20 μM, 1 hr, versus DMSO control, FIG. 21A): substantially reduces the phosphorylation of eIF2α-^51S
activity in inhibiting the phosphorylation of eIF2α (MARK2 [1]): high activity for inhibiting eIF2α phosphorylation
MARK kinase function (MARK2 [2]): inhibited MARK kinase function
